PubChem BioAssay AID1508597 | Cure First | 2020
The whole screen tested about 2,100 reagents; this is a part drawn at random. 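Calls flag viability under 80% in either arm, not effects specific to rucaparib; the reference for percent is not stated.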 Not given: the 100% reference.

- Test: 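Knock-downs altering ovarian cancer cell survival with or without PARP inhibitor rucaparib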 (primary screen)
- System: human ovarian carcinoma lines grown from tumours: OCI-P5x (papillary serous) and OCI-C5x (clear cell)
- Knock-down reagent: siRNA pool against human genes, 1.25 pmol siRNA per well
- Timing: 72 h or 96 h, depending on the cell culture
- Treatment: rucaparib 20 µM (about IC30) or vehicle, present until read-out
- Measurement: 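ATP luminescence measured at 72 or 96 h according to the culture, then normalised and expressed as percent viability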
- Direction: viability, normalised: higher = more viable cells remaining
- Rule for the call: 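a well counts as a hit if its normalised viability is under 80 percent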
- Calls: active = viability under 80%; inactive = viability 80% or more

The first 3 entries, ahead of the listing:
SMYD4, rucaparib or vehicle Rucaparib, cell line OCI-C5x (clear cell), technical replicate 1 → viability, normalised (%) = 51.2; Call = active
SMYD4, rucaparib or vehicle Rucaparib, cell line OCI-C5x (clear cell), technical replicate 2 → viability, normalised (%) = 44.2; Call = active
SMYD4, rucaparib or vehicle Rucaparib, cell line OCI-C5x (clear cell), technical replicate 3 → viability, normalised (%) = 69.3; Call = active

Results, from the start:
SMYD4, rucaparib or vehicle Rucaparib, cell line OCI-C5x (clear cell), technical replicate 1 → viability, normalised (%) = 51.2; Call = active
SMYD4, rucaparib or vehicle Rucaparib, cell line OCI-C5x (clear cell), technical replicate 2 → viability, normalised (%) = 44.2; Call = active
SMYD4, rucaparib or vehicle Rucaparib, cell line OCI-C5x (clear cell), technical replicate 3 → viability, normalised (%) = 69.3; Call = active
SMYD4, rucaparib or vehicle Rucaparib, cell line OCI-P5x (serous), technical replicate 1 → viability, normalised (%) = 35.6; Call = active
SMYD4, rucaparib or vehicle Rucaparib, cell line OCI-P5x (serous), technical replicate 2 → viability, normalised (%) = 44.7; Call = active
SMYD4, rucaparib or vehicle Rucaparib, cell line OCI-P5x (serous), technical replicate 3 → viability, normalised (%) = 47; Call = active
SMYD4, rucaparib or vehicle Vehicle, cell line OCI-C5x (clear cell), technical replicate 1 → viability, normalised (%) = 56.3; Call = active
SMYD4, rucaparib or vehicle Vehicle, cell line OCI-C5x (clear cell), technical replicate 2 → viability, normalised (%) = 52.8; Call = active
SMYD4, rucaparib or vehicle Vehicle, cell line OCI-C5x (clear cell), technical replicate 3 → viability, normalised (%) = 46.4; Call = active
SMYD4, rucaparib or vehicle Vehicle, cell line OCI-P5x (serous), technical replicate 1 → viability, normalised (%) = 42.4; Call = active
SMYD4, rucaparib or vehicle Vehicle, cell line OCI-P5x (serous), technical replicate 2 → viability, normalised (%) = 36.2; Call = active
SMYD4, rucaparib or vehicle Vehicle, cell line OCI-P5x (serous), technical replicate 3 → viability, normalised (%) = 45.5; Call = active
TESK2, rucaparib or vehicle Rucaparib, cell line OCI-C5x (clear cell), technical replicate 1 → viability, normalised (%) = 69.2; Call = active
TESK2, rucaparib or vehicle Rucaparib, cell line OCI-C5x (clear cell), technical replicate 2 → viability, normalised (%) = 59.4; Call = active
TESK2, rucaparib or vehicle Rucaparib, cell line OCI-C5x (clear cell), technical replicate 3 → viability, normalised (%) = 69.7; Call = active
TESK2, rucaparib or vehicle Rucaparib, cell line OCI-P5x (serous), technical replicate 1 → viability, normalised (%) = 112; Call = inactive
TESK2, rucaparib or vehicle Rucaparib, cell line OCI-P5x (serous), technical replicate 2 → viability, normalised (%) = 93.9; Call = inactive
TESK2, rucaparib or vehicle Rucaparib, cell line OCI-P5x (serous), technical replicate 3 → viability, normalised (%) = 77.2; Call = active
TESK2, rucaparib or vehicle Vehicle, cell line OCI-C5x (clear cell), technical replicate 1 → viability, normalised (%) = 57.5; Call = active
TESK2, rucaparib or vehicle Vehicle, cell line OCI-C5x (clear cell), technical replicate 2 → viability, normalised (%) = 54.6; Call = active
TESK2, rucaparib or vehicle Vehicle, cell line OCI-C5x (clear cell), technical replicate 3 → viability, normalised (%) = 49.5; Call = active
TESK2, rucaparib or vehicle Vehicle, cell line OCI-P5x (serous), technical replicate 1 → viability, normalised (%) = 71.9; Call = active
TESK2, rucaparib or vehicle Vehicle, cell line OCI-P5x (serous), technical replicate 2 → viability, normalised (%) = 91.2; Call = inactive
TESK2, rucaparib or vehicle Vehicle, cell line OCI-P5x (serous), technical replicate 3 → viability, normalised (%) = 58.6; Call = active
PHF3, rucaparib or vehicle Rucaparib, cell line OCI-C5x (clear cell), technical replicate 1 → viability, normalised (%) = 53.7; Call = active
PHF3, rucaparib or vehicle Rucaparib, cell line OCI-C5x (clear cell), technical replicate 2 → viability, normalised (%) = 53; Call = active
PHF3, rucaparib or vehicle Rucaparib, cell line OCI-C5x (clear cell), technical replicate 3 → viability, normalised (%) = 46.4; Call = active
PHF3, rucaparib or vehicle Rucaparib, cell line OCI-P5x (serous), technical replicate 1 → viability, normalised (%) = 47; Call = active
PHF3, rucaparib or vehicle Rucaparib, cell line OCI-P5x (serous), technical replicate 2 → viability, normalised (%) = 40; Call = active
PHF3, rucaparib or vehicle Rucaparib, cell line OCI-P5x (serous), technical replicate 3 → viability, normalised (%) = 40.3; Call = active
PHF3, rucaparib or vehicle Vehicle, cell line OCI-C5x (clear cell), technical replicate 1 → viability, normalised (%) = 33.8; Call = active
PHF3, rucaparib or vehicle Vehicle, cell line OCI-C5x (clear cell), technical replicate 2 → viability, normalised (%) = 37.4; Call = active
PHF3, rucaparib or vehicle Vehicle, cell line OCI-C5x (clear cell), technical replicate 3 → viability, normalised (%) = 42.2; Call = active
PHF3, rucaparib or vehicle Vehicle, cell line OCI-P5x (serous), technical replicate 1 → viability, normalised (%) = 57.2; Call = active
PHF3, rucaparib or vehicle Vehicle, cell line OCI-P5x (serous), technical replicate 2 → viability, normalised (%) = 65.5; Call = active
PHF3, rucaparib or vehicle Vehicle, cell line OCI-P5x (serous), technical replicate 3 → viability, normalised (%) = 87.6; Call = inactive
